# The campaign covered roughly 320,000 compounds. About 22,000 (6.9%) were called active. Inconclusive means that the source gave no clear call. Such entries were picked first, then a sample of the others. The call rests on the fitted dose curve; in most records, active means well fitted inhibition curve with a large enough effect; inconclusive means small, poorly fitted or top-dose-only effect, or another doubt; inactive means no such curve, though single readings can be large or run the other way. A potency beside an inconclusive call is a rough fit, not a confirmed value.
# Experiment: Primary qHTS for delayed death inhibitors of the malarial parasite plastid, 96 hour incubation
# Details: P. falciparum luciferase reporter growth; series mostly up to 28.7 µM; activity change, negative = inhibition: at the top concentration
# How it was run: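 P. falciparum expressing integrated firefly luciferase grown in erythrocytes (2% hematocrit, 0.05% parasitemia final) with compounds for 96 hours at 37 C, 5% CO2. Growth inhibition read as loss of luminescence after adding luciferase detection reagent.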
# On the % scale 0 is the no-effect control and ±100 the full control effect; potency means the concentration at half of the fitted maximal effect.
Structure (SMILES),"activity change, negative = inhibition",Potency
COc1cc(SC)ccc1C(=O)NCCOc1ccc(C)c(C)c1,inactive: -93.3%,–
CSc1cccc(NC(=O)Nc2nc3c(C)cccc3s2)c1,–,"inconclusive: 13.1 µM [inhibitor, single point]"
O=C(O)CCC(=O)Nc1ccc2c(c1)Cc1cc(NC(=O)CCC(=O)O)ccc1-2,inactive: 63.3%,–
CCCCOC(=O)c1cc(=O)[nH]c(=O)[nH]1,–,"inconclusive: 18.5 µM [inhibitor, single point]"
Cc1noc(C)c1CSCC(=O)Nc1nc(-c2ccc(F)c(F)c2)cs1,–,"inconclusive: 8.28 µM [inhibitor, partial curve]"
O=C(NCC1COc2ccccc2O1)c1ccc(-n2cncn2)c([N+](=O)[O-])c1 (centres undefined),–,"inconclusive: 9.28 µM [inhibitor, partial curve]"
O=C(c1ccccc1)c1cnc(Nc2ccccc2Cl)s1,inactive: 340%,–
C=CCNC(=O)c1nc2ccccc2s1,inactive: 143%,–
CC(=O)c1cnc(N(C)C)s1,–,active: 13.1 µM
COc1ccc(OC)c(NC2c3ccccc3C(=O)N2c2cccnc2)c1 (centres undefined),inactive: 18.2%,–
CCOc1ccc(-c2cc(NC(=O)c3c(F)cccc3F)c(C(=O)O)s2)cc1,inactive: 35.6%,–
CCN(CC)c1ccc(/C=C/C(=O)c2ccc(Br)cc2)cc1,inactive: -9.2%,–
O=C(Nc1ncccc1O)c1ccc(C(=O)c2ccccc2)cc1,–,active: 0.928 µM
CSc1nc2[nH]c3c(c2c2nncn12)CC(C)(C)OC3,–,"inconclusive: 8.28 µM [inhibitor, partial curve, poor fit]"
OCC[C@H]1C[C@@H](O)[C@H](O)[C@@]2(OCc3ccccc32)O1,inactive: 69.8%,–
O=C(Nc1ccccc1C(=O)N1CCOCC1)c1ccco1,–,"inconclusive: 13.1 µM [inhibitor, single point]"
COc1ccc(C2CC(=O)C(CS(=O)(=O)c3ccccc3)C(=O)C2)cc1 (centres undefined),inactive: 124%,–
C/C(=C\c1cc2ccccc2o1)C1Nc2cccc3cccc(c23)N1,–,"inconclusive: 1.65 µM [inhibitor, partial curve]"
COC(=O)c1cccc(-n2cnnn2)c1,inactive: 4.07%,–
COC(=O)c1c(-c2ccccc2)csc1NC(=O)CSc1ncnc2sc(C)c(C)c12,–,"inconclusive: 0.928 µM [inhibitor, partial curve, poor fit]"
COc1cc(/C=N/NC(=O)c2cc(-c3ccccc3)sc2N)cc(OC)c1OC,–,"inconclusive: 13.1 µM [inhibitor, single point]"
CC(C)Cn1c(-c2cc([N+](=O)[O-])ccc2Cl)nc2c1c(=O)[nH]c(=O)n2Cc1ccccc1,–,active: 2.62 µM
COc1ccc(S(=O)(=O)N(C)CC(=O)Nc2cccc(C(C)=O)c2)cc1Cl,–,"inconclusive: 0.0738 µM [inhibitor, full curve, poor fit]"
Cc1ccc(C(C)C)c(OCCSc2nc3ccccc3n2CC(=O)O)c1,–,active: 13.1 µM
O=C(NC1CC1)C1CCN(Cc2cnn(-c3ccccc3)c2-n2cccc2)CC1,–,"inconclusive: 1.47 µM [inhibitor, full curve, poor fit]"

# Gathered by group, the compounds so far with nitrogen in an aromatic ring
Structure (SMILES),"activity change, negative = inhibition",Potency
CSc1cccc(NC(=O)Nc2nc3c(C)cccc3s2)c1,–,"inconclusive: 13.1 µM [inhibitor, single point]"
CCCCOC(=O)c1cc(=O)[nH]c(=O)[nH]1,–,"inconclusive: 18.5 µM [inhibitor, single point]"
Cc1noc(C)c1CSCC(=O)Nc1nc(-c2ccc(F)c(F)c2)cs1,–,"inconclusive: 8.28 µM [inhibitor, partial curve]"
O=C(NCC1COc2ccccc2O1)c1ccc(-n2cncn2)c([N+](=O)[O-])c1 (centres undefined),–,"inconclusive: 9.28 µM [inhibitor, partial curve]"
O=C(c1ccccc1)c1cnc(Nc2ccccc2Cl)s1,inactive: 340%,–
C=CCNC(=O)c1nc2ccccc2s1,inactive: 143%,–
CC(=O)c1cnc(N(C)C)s1,–,active: 13.1 µM
COc1ccc(OC)c(NC2c3ccccc3C(=O)N2c2cccnc2)c1 (centres undefined),inactive: 18.2%,–
O=C(Nc1ncccc1O)c1ccc(C(=O)c2ccccc2)cc1,–,active: 0.928 µM
CSc1nc2[nH]c3c(c2c2nncn12)CC(C)(C)OC3,–,"inconclusive: 8.28 µM [inhibitor, partial curve, poor fit]"
COC(=O)c1cccc(-n2cnnn2)c1,inactive: 4.07%,–
COC(=O)c1c(-c2ccccc2)csc1NC(=O)CSc1ncnc2sc(C)c(C)c12,–,"inconclusive: 0.928 µM [inhibitor, partial curve, poor fit]"
CC(C)Cn1c(-c2cc([N+](=O)[O-])ccc2Cl)nc2c1c(=O)[nH]c(=O)n2Cc1ccccc1,–,active: 2.62 µM
Cc1ccc(C(C)C)c(OCCSc2nc3ccccc3n2CC(=O)O)c1,–,active: 13.1 µM
O=C(NC1CC1)C1CCN(Cc2cnn(-c3ccccc3)c2-n2cccc2)CC1,–,"inconclusive: 1.47 µM [inhibitor, full curve, poor fit]"

# Remaining list, next part:

Structure (SMILES),"activity change, negative = inhibition",Potency
CCC(=O)Oc1ccc2ccccc2c1CNC(=O)c1ccccc1,–,active: 9.28 µM
CC1(C)CC(=O)C2=C(C1)c1c(ccc3ccccc13)NC2c1ccc(Br)o1 (centres undefined),–,"inconclusive: 11.7 µM [inhibitor, single point]"
CC[n+]1c(/C=C/c2ccc(OC(C)=O)c(OC)c2)ccc2ccccc21,–,"inconclusive: 2.94 µM [inhibitor, full curve]"
O=C(CCCn1c(=O)oc2ccccc21)N1CCN(c2ccc(F)cc2)CC1,–,"inconclusive: 3.7 µM [inhibitor, full curve, poor fit]"
O=C(NCc1ccccc1)c1ncn(Cc2ccccc2)c1C(=O)NCc1ccccc1,–,"inconclusive: 1.47 µM [inhibitor, full curve]"
O=C(NC(=S)NNC(=O)c1cccs1)c1ccccc1,–,"inconclusive: 11.7 µM [inhibitor, partial curve, poor fit]"
CCN1CCc2c(C#N)c(N3CCOCC3)nc(NCCO)c2C1,–,"inconclusive: 18.5 µM [inhibitor, single point]"
CCN(CC)CCn1c2c(c(SCC(=O)Nc3nc4ccccc4s3)nc1=O)CCCC2,–,active: 11.7 µM
CCN1C(=O)C2C(c3cccc(F)c3)NC(CC)(C(=O)OC)C2C1=O (centres undefined),inactive: 80.7%,–
O=C(CCCCCCC(=O)c1ccccc1)c1ccccc1,–,"inconclusive: 18.5 µM [inhibitor, single point]"
COCCn1c(C)cc(/C=C2/NC(=O)N(Cc3ccc(C)cc3)C2=O)c1C,–,"inconclusive: 2.62 µM [inhibitor, full curve]"
CCCCCCCCCn1c2c(c(=N)c3c1CCC3)CCC2,–,active: 0.131 µM
Cc1ccc(S(=O)(=O)N(C)C)cc1NC(=O)COC(=O)/C=C/c1cnc2ccccc2n1,inactive: -1.9%,–
Cc1ccc2c(CC(=O)NCc3ccco3)coc2c1C,inactive: 14.4%,–
O=C(c1nc(-c2ccccc2)n(-c2ccccc2)n1)N1CCCCCC1,–,"inconclusive: 5.22 µM [inhibitor, partial curve, poor fit]"
O=S(=O)(NCCC1=CCCCC1)c1cccc2nsnc12,inactive: 57.2%,–
COc1ccccc1-n1c(-c2ccc(Cl)cc2)c[nH]c1=S,–,"inconclusive: 14.7 µM [inhibitor, single point]"
O=C(NC(=O)c1ccccc1O)c1ccc(C(F)(F)F)cc1,–,active: 2.33 µM
COc1cccc(C(=O)Nc2cccc(-c3nc4ncccc4o3)c2C)c1,inactive: 81.3%,–
Cc1ncc([N+](=O)[O-])n1CCOC(=O)NC(Nc1ccc(F)cc1)C(Cl)(Cl)Cl (centres undefined),–,active: 6.57 µM
O=C(NC(=S)NCc1cccnc1)c1cc2ccccc2o1,–,"inconclusive: 18.5 µM [inhibitor, single point]"
COc1cccc(-c2nc(CS(=O)(=O)CC(=O)Nc3cccc(C)c3C)c(C)o2)c1,–,"inconclusive: 9.28 µM [inhibitor, partial curve, poor fit]"
CC(C)CC(=O)N1CCN(CC2CC=CCC2)CC1 (centres undefined),–,"inconclusive: 0.233 µM [inhibitor, full curve, poor fit]"
O=C(NCCN1CCOCC1)C1CCCN(S(=O)(=O)c2ccc(F)cc2)C1 (centres undefined),inactive: 32.5%,–
COc1ccccc1C(CNC(=O)c1ccc(NS(=O)(=O)c2ccc(F)c(C)c2)cc1)N(C)C (centres undefined),–,"inconclusive: 9.28 µM [inhibitor, single point]"

# 2 records drawn at random from those above:
Structure (SMILES),"activity change, negative = inhibition",Potency
CCN1C(=O)C2C(c3cccc(F)c3)NC(CC)(C(=O)OC)C2C1=O (centres undefined),inactive: 80.7%,–
O=C(CCCn1c(=O)oc2ccccc21)N1CCN(c2ccc(F)cc2)CC1,–,"inconclusive: 3.7 µM [inhibitor, full curve, poor fit]"

# More structures follow:

Structure (SMILES),"activity change, negative = inhibition",Potency
COCCCNc1nc2c(c(=O)n(Cc3cccc(Br)c3)c(=O)n2C)n1C,–,"inconclusive: 14.7 µM [inhibitor, single point]"
CC1Cc2ccccc2N1Cc1cc(=O)c(OCC(=O)Nc2ccccc2)co1 (centres undefined),–,active: 10.4 µM
CCn1c(=O)c([N+](=O)[O-])c(N2CCOCC2)c2ccccc21,–,active: 10.4 µM
CCCOc1ccc(C(=O)Nc2nc(C)c(Cc3ccc4c(c3)OCO4)s2)cc1,–,"inconclusive: 5.22 µM [inhibitor, partial curve]"
CCCN1Cc2cccc(C(=O)Nc3ccc(S(=O)(=O)N4CCCCCC4)cc3)c2C1=O,–,"inconclusive: 1.65 µM [inhibitor, full curve]"
Cc1ccc(-c2csc(NC(=O)CSc3nc4ccccc4c(=O)n3CCCN(C)C)n2)cc1,–,"inconclusive: 14.7 µM [inhibitor, single point]"
CCN(CC)C(=O)c1csc(Nc2cccc3ccccc23)n1,–,"inconclusive: 18.5 µM [inhibitor, single point]"
COc1ccc2nc(/C(C#N)=C\c3ccc(Oc4ccc([N+](=O)[O-])cn4)cc3)[nH]c2c1,–,"inconclusive: 4.15 µM [inhibitor, partial curve, poor fit]"
Cc1ccc(-c2cn(-c3ccccc3F)c(=S)[nH]2)cc1,inactive: 24.7%,–
CS(=O)(=O)Nc1ccc(C(=O)NCCSCc2c(F)cccc2Cl)cc1,–,"inconclusive: 0.0415 µM [inhibitor, full curve, poor fit]"
Cc1ccc(C(=O)Nc2ccccc2C(=O)NC(C(=O)O)C(C)C)cc1 (centres undefined),–,"inconclusive: 0.0083 µM [inhibitor, full curve, poor fit]"
COc1ccc(S(=O)(=O)N2CCN(C(=O)CSC(=S)N3CCCC3)CC2)cc1,–,"inconclusive: 16.5 µM [inhibitor, single point]"
CSc1nc2ccc(NC(=O)C3=NNC(=O)CC3)cc2s1,inactive: 9.72%,–
Cc1cccnc1Nc1nc(-c2ccc(F)cc2)cs1,inactive: 0%,–
c1cc2nc(C34CC5CC(CC(C5)C3)C4)[nH]c2cn1,–,"inconclusive: 18.5 µM [inhibitor, single point]"
CC(Sc1nc(N)cc(=O)[nH]1)C(=O)Nc1cccc(Cl)c1 (centres undefined),inactive: -9.91%,–
CCOC(=O)N/N=C/C=C/c1ccccc1[N+](=O)[O-],–,"inconclusive: 18.5 µM [inhibitor, single point]"
CC1(C2CC2)NC(=O)N(CC(=O)N2CCN(c3ccccc3)CC2)C1=O (centres undefined),inactive: -9.09%,–
CCCCCN(C(=O)CCC(=O)OCCOc1cccc(C)c1)c1c(N)n(CCCC)c(=O)[nH]c1=O,–,"inconclusive: 11.7 µM [inhibitor, single point]"
O=C(COC(=O)/C=C/c1ccc(F)cc1)Nc1ccccc1-c1ccccc1,inactive: -0.3%,–
CCN(CC)S(=O)(=O)c1cccc(NC(=O)CN(C)C2CCCCC2)c1,–,"inconclusive: 18.5 µM [inhibitor, single point]"
CCOC(=O)CS(=O)(=O)c1ccccc1,inactive: 1.93%,–
CC(=O)N1C=CN(C(C)=O)C(c2cn(C)c3ccccc23)C1c1cn(C)c2ccccc12 (centres undefined),inactive: 80.3%,–
Cc1cc(C)c(NC(=O)COC(=O)c2ccc([N+](=O)[O-])s2)c(C)c1,–,"inconclusive: 0.465 µM [inhibitor, full curve, poor fit]"
